PubChem BioAssay AID1053209 – Peter MacCallum Cancer Centre | 2014

Aim: 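Gene losses that combine with doxorubicin to kill mouse bone cancer cells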 (follow-up of hits)
Cells: mouse primary osteosarcoma cells
Reagent: single siRNA against mouse genes, 25 nM (text also states 40 nM)
Timing: about 120 h (48 h before drug, then 72 h with drug)
Conditions: doxorubicin 100 nM (about IC30-40), added 48 h after transfection, for 72 h
Measurement: 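Viability measured by ATP luminescence with and without doxorubicin, each replicate scaled to non-targeting siRNA NT1, averaged over two replicates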
Reading the numbers: viability with doxorubicin, vs NT1: higher = more viable cells under doxorubicin; viability without drug, vs NT1: higher = more viable cells without drug
Active means: 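Counted as active (class LC dox) if viability falls to 0.7 of NT1 or below under doxorubicin but stays within 0.7 to 1.1 without drug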
This is an unselected part of about 1,580 reagents tested. Over the whole deposit, 207 (13%) are marked active. 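Rows are single siRNAs; four siRNAs per gene were tested, a gene counting as confirmed only when at least two agree.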 Entries without a mark were called inactive. Reagents against one gene are numbered here. Not all columns of the deposit are shown. Reagent sequences are not shown.

no.	Target gene	siRNA no.	combined effect class	viability with doxorubicin, vs NT1	viability without drug, vs NT1
1	Cebpd (GeneID 12609)	1	normal viability with and without drug	1	1
2	Cebpd (GeneID 12609)	2	normal viability with and without drug	0.96	0.98
3	Cebpd (GeneID 12609)	3	normal viability with and without drug	0.94	1.09
4	Cebpd (GeneID 12609)	4	normal viability with and without drug	0.76	0.86
5	Rph3al (GeneID 380714)	1	low viability only with doxorubicin; normal without drug (active)	0.7	0.96
6	Rph3al (GeneID 380714)	2	normal viability with and without drug	0.96	1.03
7	Rph3al (GeneID 380714)	3	normal viability with and without drug	1	1.04
8	Rph3al (GeneID 380714)	4	normal viability with and without drug	0.78	1.03
9	Il17a (GeneID 16171)	1	normal viability with and without drug	0.96	0.96
10	Il17a (GeneID 16171)	2	normal viability with and without drug	0.99	1.06
11	Il17a (GeneID 16171)	3	high viability only with doxorubicin	1.12	1.03
12	Il17a (GeneID 16171)	4	high viability only with doxorubicin	1.12	1.06
13	Pabpc1 (GeneID 18458)	1	normal viability with and without drug	1.04	0.94
14	Pabpc1 (GeneID 18458)	2	low viability with and without drug	0.55	0.68
15	Pabpc1 (GeneID 18458)	3	normal viability with and without drug	0.72	0.74
16	Pabpc1 (GeneID 18458)	4	low viability with and without drug	0.58	0.63
17	Prkab2 (GeneID 108097)	1	normal viability with and without drug	0.97	0.9
18	Prkab2 (GeneID 108097)	2	normal viability with and without drug	0.96	1.04
19	Prkab2 (GeneID 108097)	3	normal viability with and without drug	0.98	0.98
20	Prkab2 (GeneID 108097)	4	high viability only with doxorubicin	1.17	1.02
21	Sf3b6 (GeneID 66055)	1	low viability with and without drug	0.25	0.34
22	Sf3b6 (GeneID 66055)	2	low viability with and without drug	0.38	0.58
23	Sf3b6 (GeneID 66055)	3	low viability with and without drug	0.15	0.36
24	Sf3b6 (GeneID 66055)	4	normal viability with and without drug	1.03	0.95
25	Nup155 (GeneID 170762)	1	low viability only with doxorubicin; normal without drug (active)	0.58	0.82
26	Nup155 (GeneID 170762)	2	low viability only with doxorubicin; normal without drug (active)	0.61	0.93
27	Nup155 (GeneID 170762)	3	low viability only with doxorubicin; normal without drug (active)	0.55	0.82
28	Nup155 (GeneID 170762)	4	normal viability with and without drug	1.05	1
29	Rbm39 (GeneID 170791)	1	low viability only with doxorubicin; normal without drug (active)	0.68	0.96
30	Rbm39 (GeneID 170791)	2	normal viability with and without drug	0.75	0.99
31	Rbm39 (GeneID 170791)	3	normal viability with and without drug	1.04	1.02
32	Rbm39 (GeneID 170791)	4	low viability only with doxorubicin; normal without drug (active)	0.38	0.86
33	Rpl13a (GeneID 22121)	1	low viability with and without drug	0.2	0.2
34	Rpl13a (GeneID 22121)	2	low viability with and without drug	0.32	0.48
35	Rpl13a (GeneID 22121)	3	low viability with and without drug	0.3	0.37
36	Rpl13a (GeneID 22121)	4	low viability with and without drug	0.32	0.55
37	Magea6 (GeneID 17142)	1	normal viability with and without drug	1	1.02
38	Magea6 (GeneID 17142)	2	normal viability with and without drug	1.01	1.05
39	Magea6 (GeneID 17142)	3	normal viability with and without drug	0.75	0.98
40	Magea6 (GeneID 17142)	4	normal viability with and without drug	1.01	1
41	Ist1 (GeneID 71955)	1	low viability only with doxorubicin; normal without drug (active)	0.69	0.89
42	Ist1 (GeneID 71955)	2	normal viability with and without drug	0.92	0.97
43	Ist1 (GeneID 71955)	3	normal viability with and without drug	0.9	0.85
44	Ist1 (GeneID 71955)	4	low viability only with doxorubicin; normal without drug (active)	0.45	0.74
45	Polr2k (GeneID 17749)	1	low viability only with doxorubicin; normal without drug (active)	0.7	0.98
46	Polr2k (GeneID 17749)	2	normal viability with and without drug	0.82	0.81
47	Polr2k (GeneID 17749)	3	normal viability with and without drug	0.92	0.96
48	Polr2k (GeneID 17749)	4	normal viability with and without drug	0.86	0.96
49	Vcp (GeneID 269523)	1	low viability only with doxorubicin; normal without drug (active)	0.69	0.9
50	Vcp (GeneID 269523)	2	normal viability with and without drug	0.74	0.9
51	Vcp (GeneID 269523)	3	low viability with and without drug	0.34	0.63
52	Vcp (GeneID 269523)	4	low viability only with doxorubicin; normal without drug (active)	0.36	0.78
53	Napsa (GeneID 16541)	1	high viability only without drug	1	1.11
54	Napsa (GeneID 16541)	2	high viability only without drug	0.98	1.13
55	Napsa (GeneID 16541)	3	normal viability with and without drug	0.92	0.99
56	Napsa (GeneID 16541)	4	normal viability with and without drug	0.82	0.76
57	Ikzf4 (GeneID 22781)	1	normal viability with and without drug	1.06	1.05
58	Ikzf4 (GeneID 22781)	2	high viability only with doxorubicin	1.12	1.01
59	Ikzf4 (GeneID 22781)	3	normal viability with and without drug	1.04	0.92
60	Ikzf4 (GeneID 22781)	4	normal viability with and without drug	0.98	0.86
61	Rhoh (GeneID 74734)	1	normal viability with and without drug	1.02	0.99
62	Rhoh (GeneID 74734)	2	normal viability with and without drug	1.02	1.06
63	Rhoh (GeneID 74734)	3	normal viability with and without drug	0.72	0.82
64	Rhoh (GeneID 74734)	4	normal viability with and without drug	1.08	1.08
65	Fam25a (GeneID 69134)	1	normal viability with and without drug	0.94	1.02
66	Fam25a (GeneID 69134)	2	normal viability with and without drug	0.9	0.97
67	Fam25a (GeneID 69134)	3	normal viability with and without drug	0.84	1.02
68	Fam25a (GeneID 69134)	4	normal viability with and without drug	0.74	0.89
69	Cherp (GeneID 27967)	1	normal viability with and without drug	0.83	0.95
70	Cherp (GeneID 27967)	2	normal viability with and without drug	1.08	1.09
71	Cherp (GeneID 27967)	3	normal viability with and without drug	1	1.06
72	Cherp (GeneID 27967)	4	normal viability with and without drug	0.94	0.96
73	Pth2r (GeneID 213527)	1	normal viability with and without drug	0.96	0.96
74	Pth2r (GeneID 213527)	2	normal viability with and without drug	1.02	1.06
75	Pth2r (GeneID 213527)	3	high viability only without drug	1.06	1.16
76	Pth2r (GeneID 213527)	4	normal viability with and without drug	1.02	1.03

7 entries already listed, ordered by “viability with doxorubicin, vs NT1”, descending.
Target gene	siRNA no.	combined effect class	viability with doxorubicin, vs NT1	viability without drug, vs NT1
Rph3al (GeneID 380714)	3	normal viability with and without drug	1	1.04
Rph3al (GeneID 380714)	2	normal viability with and without drug	0.96	1.03
Il17a (GeneID 16171)	1	normal viability with and without drug	0.96	0.96
Cebpd (GeneID 12609)	3	normal viability with and without drug	0.94	1.09
Rph3al (GeneID 380714)	4	normal viability with and without drug	0.78	1.03
Cebpd (GeneID 12609)	4	normal viability with and without drug	0.76	0.86
Rph3al (GeneID 380714)	1	low viability only with doxorubicin; normal without drug (active)	0.7	0.96
